The other results are listed elsewhere or left out. Further columns of the screen follow, without active or inactive calls. Compounds called inactive in the main read-out are mostly missing here. Words in brackets tell the shape of the fitted curve; partial curves, single points and poor fits give uncertain potencies.
Experiment: qHTS Assay for Lipid Storage Modulators in Drosophila S3 Cells;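 on cell number change: cells counted by Cell Tracker Red CMTPX staining in the red channel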
Details: BODIPY lipid droplet fluorescence, 18-24 h; for cell number change: measured here: cell count max response, cells fed with added oleic acid
Summary of the method: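 Drosophila S3 cells got compounds at several concentrations plus oleic acid (400 uM solution). Laser-scanning cytometry with 488 nm excitation read lipid droplets at 500-530 nm and cells at 575-640 nm. Percent activity was relative to 20 uM Triacsin C.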

[1] = measured here: cell number channel AC50, cells fed with added oleic acid
[2] = measured here: lipid fluorescence (Fed channel) AC50, cells fed with added oleic acid

| SMILES | cell number change [%] | AC50 [1] | AC50 [2] |
| --- | --- | --- | --- |
| Oc1ccc(/C=C/c2nc(-c3ccccc3O)n(-c3ccccc3)n2)cc1 | -52.6 | 10.3 µM [falling, partial curve, poor fit] | 29.1 µM [falling, single point] |
| O=C(Cc1ccc(Cl)cc1)Nc1cccc(S(=O)(=O)Nc2ccccc2F)c1 | 8.03 | – | 3.66 µM [rising, partial curve, poor fit] |
| CN(CC(=O)Nc1ccccc1Sc1ccccc1)Cc1nc2ccccc2c(=O)[nH]1 | -12.8 | – | 0.116 µM [falling, single point] |
| Cc1ccc(N=Cc2c(O)cc(C)oc2=O)c(C)c1 | -35.4 | 0.92 µM [falling, full curve] | 2.59 µM [falling, full curve] |
| CCOC(=O)N1CCC(NC(=O)CC2C(=O)NCCN2Cc2ccccc2)CC1 (configuration not stated) | 11 | – | 29.1 µM [rising, single point] |
| CC1=NN(C(=O)c2ccc(Cn3nc(C)c([N+](=O)[O-])c3C)cc2)C(O)(C(F)(F)F)C1 (configuration not stated) | – | 2.91 µM [rising, partial curve, poor fit] | – |
| CCC1CCCCN1C(=O)COc1ccc(F)cc1 (configuration not stated) | -0.713 | – | 0.517 µM [rising, single point] |
| Cc1nc2ccccc2nc1SCC(=O)c1ccccc1 | -21.5 | – | 16.4 µM [falling, single point] |
| COc1ccc2cc(C(=O)NCc3ccccc3CN3CCCC3)ccc2c1 | -15.4 | – | 7.31 µM [falling, partial curve] |
| C[C@H](NC(=O)N1CCn2c1nc1ccccc12)C(=O)NCc1ccccc1 | -5.19 | – | 29.1 µM [falling, single point] |
| O=C(c1ccc(Br)cc1)N1CCC(C(=O)N2CCN(c3ccccc3)CC2)CC1 | -19.1 | – | 8.2 µM [falling, partial curve] |
| CSc1ncccc1C(=O)Nc1nc2c(C)cccc2s1 | -35.2 | 32.6 µM [falling, single point] | – |
| O=S(=O)(NCc1ccco1)c1ccc2c(c1)Cc1ccccc1-2 | – | – | 0.58 µM [rising, single point] |
| CC(C)(C)C(=O)Nc1ccccc1C(=O)Nc1cccnc1 | -13.2 | – | 29.1 µM [falling, single point] |
| Cc1occc1C(=O)NNC(=O)C1CCCC1 | -36.6 | 0.00461 µM [falling, full curve, poor fit] | – |
| CCCCOc1ccc(-c2nc(=S)[nH][nH]2)cc1 | – | 0.731 µM [falling, single point] | 0.731 µM [falling, single point] |
| COc1ccc2nc(NC(=O)CSc3nnc4n3C(C)(C)Cc3ccccc3-4)sc2c1 | 4.22 | – | – |
| Cc1ccc(NC(=O)CN(C)C(=O)c2ccc(OCc3cn4ccccc4n3)cc2)cc1 | 4.8 | – | 29.1 µM [rising, single point] |
| CN(Cc1ccccn1)C(=O)CC1C(=O)NCCN1Cc1ccc(F)cc1Cl (configuration not stated) | 95.7 | 18.4 µM [rising, partial curve] | – |

Given with each value named: part of the list above.
Oc1ccc(/C=C/c2nc(-c3ccccc3O)n(-c3ccccc3)n2)cc1
  cell number change [%]: -52.6; AC50 [1]: 10.3 µM [falling, partial curve, poor fit]; AC50 [2]: 29.1 µM [falling, single point]
O=C(Cc1ccc(Cl)cc1)Nc1cccc(S(=O)(=O)Nc2ccccc2F)c1
  cell number change [%]: 8.03; AC50 [2]: 3.66 µM [rising, partial curve, poor fit]
CN(CC(=O)Nc1ccccc1Sc1ccccc1)Cc1nc2ccccc2c(=O)[nH]1
  cell number change [%]: -12.8; AC50 [2]: 0.116 µM [falling, single point]

Additional results follow:

| SMILES | cell number change [%] | AC50 [1] | AC50 [2] |
| --- | --- | --- | --- |
| CC(=O)NCCc1ccc(-c2csc(NC(=O)C3CC(=O)N(C4CCCC4)C3)n2)cc1 (configuration not stated) | 73.9 | 13 µM [rising, partial curve] | – |
| CC(=O)N/C(=C/c1ccc([N+](=O)[O-])cc1)C(=O)O | -22.1 | – | – |
| OC(C#CCN1CCCCC1)c1ccccc1 (configuration not stated) | -2.42 | – | 1.84 µM [falling, full curve, poor fit] |
| CN(CCc1ccccc1)C1CCCN(S(=O)(=O)CC(F)(F)F)C1 (configuration not stated) | 19.4 | – | 29.1 µM [rising, single point] |
| O=C(/C=C/c1ccccc1)Nc1ccc(N2CCCCC2)cc1 | 60.4 | 20.6 µM [rising, single point] | – |
| COc1ccc(CNc2ncnc3c2[nH]c2ccccc23)cc1 | -50.7 | 16.4 µM [falling, single point] | 18.4 µM [falling, partial curve] |
| CC(=O)Nc1ccc(S(=O)(=O)Nc2cc(C)ccn2)cc1 | -25 | 0.116 µM [falling, full curve] | 0.082 µM [falling, full curve] |
| O=C1CC(c2ccccc2)Cc2nc(NC3CC3)ncc21 (configuration not stated) | -32.1 | 18.4 µM [falling, partial curve] | 32.6 µM [falling, partial curve] |
| Cc1cccc(C(=O)OCC(=O)Nc2ccccc2C(=O)NC2CC2)c1 | 11.2 | – | – |
| Cc1ccc(/C(O)=C/C(=O)C(=O)NNC(=O)C(O)(c2ccccc2)c2ccccc2)cc1 | -41.3 | 25.9 µM [falling, single point] | – |
| COc1nc(N)nc2nc[nH]c12 | 1.26 | – | – |
| Cc1ccc(OC(C)C(=O)N2CC(=O)Nc3ccccc32)cc1 (configuration not stated) | -3.95 | 0.82 µM [rising, full curve, poor fit] | – |
| Cc1nnc(C)c2c(C)n(N)c(C)c12 | 17.5 | 0.164 µM [falling, full curve, poor fit] | – |
| CCc1nc2oc3ccccc3c(=O)c2c(=O)n1Cc1ccc(OC)cc1 | 7.5 | 0.00517 µM [falling, full curve, poor fit] | 29.1 µM [falling, single point] |
| COc1ccc(C2(C)NC(=O)N(CC(=O)c3cc(C)n(C4CC4)c3C)C2=O)cc1 (configuration not stated) | -1.04 | – | 2.91 µM [rising, partial curve, poor fit] |
| O=C(Nc1ccc(N2CCCCC2)cc1)c1cccnc1 | 17.9 | – | – |
| Fc1ccc(Oc2nc(-c3ccccn3)nc3ccccc23)cc1 | -20.2 | 0.731 µM [falling, full curve] | – |
| Cc1nc2ccc(NC(=O)CCS(=O)(=O)c3ccccc3)cc2s1 | -38.4 | 0.92 µM [falling, full curve, poor fit] | 0.291 µM [falling, full curve] |
| O=C(O)C1CCCCN1S(=O)(=O)c1ccc2ccccc2c1 (configuration not stated) | -5.51 | 1.64 µM [falling, partial curve] | 0.58 µM [falling, single point] |
